In article PMC7862700 one finds binding signal data, which are given here for 60 sequences.

This is a selection; strong and weak results do not stand in their true shares. For part of these data: At the low end of the ranking the order means little. The list shows a part of the results. For part of these data: The exact form of the protein is not confirmed.

Test [1] has as its target T1, ETS1 (UniProt P14921).
T1 sequence: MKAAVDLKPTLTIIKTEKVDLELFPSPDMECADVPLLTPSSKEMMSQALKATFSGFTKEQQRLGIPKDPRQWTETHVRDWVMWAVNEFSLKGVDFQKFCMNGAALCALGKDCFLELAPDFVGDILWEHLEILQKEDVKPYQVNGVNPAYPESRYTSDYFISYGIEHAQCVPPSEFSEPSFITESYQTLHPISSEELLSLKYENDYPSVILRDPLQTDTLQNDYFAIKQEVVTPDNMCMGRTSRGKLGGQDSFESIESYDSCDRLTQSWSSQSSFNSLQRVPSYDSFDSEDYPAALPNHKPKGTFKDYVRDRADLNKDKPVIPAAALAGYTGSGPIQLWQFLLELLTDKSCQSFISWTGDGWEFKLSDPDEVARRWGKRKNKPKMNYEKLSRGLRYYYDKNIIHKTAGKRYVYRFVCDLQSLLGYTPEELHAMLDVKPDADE
The test is described as follows: DAPPL (digital affinity profiling via proximity ligation, sequencing). The note with it: 10 mM Tris-HCl pH 7.5, 50 mM NaCl, 1 mM DTT, 4% glycerol, room temperature, 30 min; GST-TFs on glutathione beads, 16-mer random dsDNA library, 0.1% …; high values mean tight binding; double strand, one strand shown; scale: fold enrichment (6-mer frequency, TF over GST control).

The target in test [2] is T2, SPDEF (UniProt O95238).
T2 sequence: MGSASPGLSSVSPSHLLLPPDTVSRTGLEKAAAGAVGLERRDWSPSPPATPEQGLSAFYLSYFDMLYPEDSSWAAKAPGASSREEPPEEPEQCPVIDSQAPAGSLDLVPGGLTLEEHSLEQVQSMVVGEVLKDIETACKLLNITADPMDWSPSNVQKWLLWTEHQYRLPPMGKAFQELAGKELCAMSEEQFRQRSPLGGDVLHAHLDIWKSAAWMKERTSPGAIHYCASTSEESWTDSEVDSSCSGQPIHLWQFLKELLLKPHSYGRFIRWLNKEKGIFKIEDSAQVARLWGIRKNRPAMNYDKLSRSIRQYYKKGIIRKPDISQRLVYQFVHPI
The test is described as above. The conditions noted are these: 10 mM Tris-HCl pH 7.5, 50 mM NaCl, 1 mM DTT, 4% glycerol, room temperature, 30 min; GST-TFs on glutathione beads, 16-mer random dsDNA library, 0.1% …; high values mean tight binding; double strand, one strand shown; scale: fold enrichment (6-mer frequency, TF over GST control).

As for AGCTGT, the values for the binding signal in test [1] and in test [2] were 0.959 and 0.929, respectively.
Turning to CCCCAA, the binding signal is 1.21 in test [1] and 1.11 in test [2].
For TCACTG, in that order: 1.25 and 1.16.
Regarding GCTGAC, the binding signal came out at 0.96 in test [1] and 0.942 in test [2].
The corresponding values for GACTTT are 1.21 and 0.989.
For TCTGAC, in that order: 1.13 and 1.14.
On to ATCGTT, for which the binding signal in test [1] turned out to be 1.06; in test [2] it was 0.981.
The corresponding values for GGTAAC are 1.02 and 0.972.
The corresponding values for AAGTGT are 1.18 and 1.32.
The corresponding values for GCAGCT are 0.995 and 1.06.
As to CGCGTT, the binding signal in test [1] turned out to be 1.12; in test [2], 0.865.
For TTAAGA, in that order: 1.1 and 1.06.
The corresponding values for TACAGC are 1.06 and 0.996.
On to CCTCCG, for which the binding signal in test [1] was determined as 1.31; in test [2] it was 1.36.
ACTATC: the binding signal in test [1] stood at 1.19; in test [2], 1.18.
GCTCAC: the binding signal was 1.44 in test [1] and 1.42 in test [2].
On to AAGCAA, for which the results for the binding signal in test [1] and in test [2] were 1.05 and 0.946, respectively.
Turning to TGCATA, the binding signal in test [1] was 1.17; in test [2], 1.18.
As for GAGCTT, the binding signal came to 1.05 in test [1] and 0.926 in test [2].
For the sequence CTGGAA, the binding signal in test [1] was 1.21; in test [2], 1.16.
As to GCTTAA, the results for the binding signal in test [1] and in test [2] were 0.969 and 1.06, respectively.
With TTGGAA, the binding signal in test [1] turned out to be 0.976; in test [2], 0.958.
ACTAGA: the binding signal in test [1] came out at 0.958; in test [2], 0.905.
Turning to GTTCTG, the figures for the binding signal in test [1] and in test [2] were 1.07 and 1, respectively.
As for CCAACT, the binding signal is 1.31 in test [1] and 1.27 in test [2].
Consider TCTCGT, for which the binding signal in test [1] is 1.32; in test [2], 1.15.
For GACCGG, the values for the binding signal in test [1] and in test [2] were 1.04 and 1.19, respectively.
Regarding TGACTG, the binding signal in test [1] worked out at 1.03; in test [2], 1.05.
For AGTGGT, the values for the binding signal in test [1] and in test [2] were 1.09 and 0.887, respectively.
As for CAGCCT, the binding signal in test [1] is 1.12; in test [2], 0.988.
Turning to TTGAGC, the figures for the binding signal in test [1] and in test [2] were 1.01 and 1.02, respectively.
The corresponding values for ACCTGT are 1.04 and 0.949.
On to TACGGT, for which the binding signal was determined as 0.947 in test [1] and 1.1 in test [2].
With ACTAAT, the values for the binding signal in test [1] and in test [2] were 1.23 and 1.21, respectively.
On to CTCGAC, for which the figures for the binding signal in test [1] and in test [2] were 1.49 and 1.42, respectively.
For TACCCC, the values for the binding signal in test [1] and in test [2] were 1.1 and 1.02, respectively.
With CCTTGC, the binding signal in test [1] was found to be 1.43; in test [2], 1.34.
For CTCTAT, in that order: 1.2 and 1.16.
In the case of TATAGA, the figures for the binding signal in test [1] and in test [2] were 1.19 and 1.14, respectively.
For ATCGCA, in that order: 1.06 and 0.993.
As for CGAGCA, the binding signal in test [1] came to 1.09; in test [2], 1.18.
For TCCTAG, in that order: 1.26 and 1.4.
As to CCTTCC, the binding signal in test [1] stood at 2.37; in test [2] it was 2.44.
Consider GGCTTG, for which the binding signal in test [1] was 1.07; in test [2], 0.919.
Regarding ACGTCT, the results for the binding signal in test [1] and in test [2] were 1.17 and 1.12, respectively.
For CATACC, in that order: 1.11 and 1.14.
Regarding CCCAAG, the binding signal amounted to 0.966 in test [1] and 0.924 in test [2].
In the case of GCGCGC, the binding signal in test [1] turned out to be 1.07; in test [2], 0.817.
In the case of GTCTAA, the binding signal in test [1] was 1.05; in test [2], 0.975.
Turning to TTCAGG, the binding signal in test [1] amounted to 1.15; in test [2] it was 1.25.
Consider TGGCCG, for which the binding signal was 1.06 in test [1] and 0.979 in test [2].
For ATCTTA, the binding signal was found to be 1.07 in test [1] and 1.12 in test [2].
For the sequence CCTGCG, the binding signal was determined as 1.35 in test [1] and 1.23 in test [2].
For the sequence TTGCTC, the binding signal in test [1] was determined as 1.24; in test [2] it was 1.2.
Regarding GCCTCT, the binding signal in test [1] was 1.41; in test [2], 1.3.
On to TCACCA, for which the binding signal in test [1] came to 1.1; in test [2], 1.13.
On to GAAACA, for which the binding signal in test [1] and in test [2] was 1.3 in each case.
Take TCACCT: the binding signal was 1.24 in test [1] and 1.22 in test [2].
On to TCTTTC, for which the values for the binding signal in test [1] and in test [2] were 1.29 and 1.44, respectively.
On to AGTATG, for which the binding signal in test [1] worked out at 1.11; in test [2], 0.815.
